Entries after “also recorded” stand apart in the source; their conditions may differ. Part of at least one peptide drawing is inferred or uncertain, most often the ends. Ends that are not written are not given here.
How the values were obtained:
SMAR1 [1] = target: T1, SMAR1 (Homo sapiens, UniProt Q8N9N5); assay: SMAR1 stabilization/induction in HCT116 cells (western blot); type: cell-based; conditions: peptide treatment 48 hours
T1 construct: HCT116 cells treated with different available peptides for 48 hours stabilized SMAR1 expression; endogenous in cells; host or cells: HCT116 p53+/+, HCT116 p53-/-, MCF7, SW620, NCI-H522, MDA-MB231
T1 sequence (Q8N9N5 1-519): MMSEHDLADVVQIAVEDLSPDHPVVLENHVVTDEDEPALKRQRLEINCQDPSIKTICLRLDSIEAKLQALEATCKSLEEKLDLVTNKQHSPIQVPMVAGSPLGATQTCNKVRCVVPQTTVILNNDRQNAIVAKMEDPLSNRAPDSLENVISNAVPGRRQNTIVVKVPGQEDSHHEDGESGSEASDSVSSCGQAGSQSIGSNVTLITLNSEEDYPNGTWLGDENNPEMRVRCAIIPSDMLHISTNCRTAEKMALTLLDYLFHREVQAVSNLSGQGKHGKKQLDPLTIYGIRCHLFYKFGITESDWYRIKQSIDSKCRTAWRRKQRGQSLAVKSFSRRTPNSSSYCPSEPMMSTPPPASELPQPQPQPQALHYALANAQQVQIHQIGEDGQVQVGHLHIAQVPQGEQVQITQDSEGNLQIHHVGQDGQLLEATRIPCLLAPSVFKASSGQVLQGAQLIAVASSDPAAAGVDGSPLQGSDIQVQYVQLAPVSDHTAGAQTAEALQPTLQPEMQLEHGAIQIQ

SMAR1 [2] = assay: Peptide interaction assay by ITC, SMAR1; type: binding; conditions: 25° C.
[3] = test system: HT29 cells (adenocarcinoma); assay: HT29 xenograft in SCID mice; type: in vivo; conditions: 50 mg/kg intra-peritoneally daily, 21 days, vs control without peptide
Method: (§1) SCID mice were injected subcutaneously with either 1 million HCT116 cells (carcinoma) or HT29 cells (adenocarcinoma) both of which are colon cancer cells. After 2 weeks tumors developed could be seen and the process of injecting AT-01C peptide was initiated. For HCT116 xenograft mice model AT-01C peptide of 25 mg/kg body weight of mice was injected intra-peritoneally. In case of HT29 xenograft mice model AT-01C peptide of 50 mg/kg body weight of mice was injected intra-peritoneally. Stock concentration of the AT-01C was 10 mg/ml. Both the mice group were injected with AT-01C peptide for 21 days daily just 5 mm away from the tumors. The daily injection was performed by injecting AT-01C surrounding the tumors being developed. After 21 days of injection tumors excised and their weight and volume was measured.
(§2) Tumors raised in SCID mice by subcutaneously injecting either 1 million HCT116 cells or HT29 cells (Xenograft model). After tumors developed and were visible to eyes AT-01C peptide treatment was started. For tumors raised using HCT116 colon cancer cells AT-01C of 25 mg/kg body weight of mice was injected intra-peritoneally. AT-01C peptide of 50 mg/kg body weight was injected intra-peritoneally as treatment for tumors raised with HT29 cells. AT-01C was injected daily surrounding the tumor 5 mm away from it. After 21 days of peptide injection, mice were sacrificed and tumors excised. […]

MDA-MB231 cells = assay: Annexin V staining by flow cytometry (FACS); type: cell-based, Human; conditions: after peptide treatment
[4] = test system: MDA-MB231 breast cancer cells; assay: Wound healing / cell migration assay; type: cell-based, Human; conditions: MDA-MB231, 10 μg peptide, recorded up to 16 hours, vs DMSO control
Method: MDA-MB231 breast cancer cells (1×10^^6) were seeded in a 6 well plate and maintained in L15 DMEM medium supplemented with 10% FBS and 100 Units of Penicillin Streptomycin antibiotics for 24 hours. Cells were treated for 24 hours with AT-01C and AT-01D peptides of 10 μg each. Post 24 hours wound was created and washed with medium to remove the cells detached during wound creation. Fresh peptides were added plate was mounted at the microscope chamber maintaining the temperature of 37° C. Images were acquired in NIKON Confocal Microscope for 5 minutes interval. Time lapse was set for 16 hours and images were compiled to make the video movie of the cell migration.

HCT116 cells (carcinoma) = assay: HCT116 xenograft in SCID mice; type: in vivo; conditions: 25 mg/kg intra-peritoneally daily, 21 days, vs control without peptide
Method: as §1, §2

In the case of ATATVNAIRGSVTPAVSQFN [AT-01C], the “SMAR1 stabilization / induction” value (SMAR1 [1]) is reported as “heightened effectiveness; also recorded: significantly induce expression of SMAR1”, the “interaction with SMAR1 (ITC)” value (SMAR1 [2]) is reported as “positive results” and the tumor weight [3] is reported as “decreased”. The tumor volume ([3]; 50 mg/kg) was “one-half; also recorded: decreased”, the “cell death (Annexin V)” value (MDA-MB231 cells) was “no signs of cell death” and the cell migration [4] was “mitigation of anticipated cell migration; also recorded: attenuate migration”. The tumor weight (HCT116 cells (carcinoma)) was “decreased” and the tumor volume (HCT116 cells (carcinoma); 25 mg/kg) was “two-thirds; also recorded: decreased”.

From patent US20190382454A1, “A MODIFIED PEPTIDE AS AN ANTICANCER AGENT” (Amrita Therapeutics Limited, priority 2015, published 2019)
